This assay addresses human myc-tagged essential myosin light chain (ELC) (human). In words: co-IP; human myc-tagged ELC and deletion variants of human flag-tagged NEK9 overexpressed; IP and immunoblot, interaction intensity quantified. A general note: In western blotting, separated proteins are transferred to a membrane and probed.

These are yes or no findings as the source states them, for the method shown. In cells and extracts the contact can be indirect. Binding calls can cover weak binding; strength is not graded here. Sequences can lack the tags named with a protein.

B1: human flag-tagged NEK9^Middle(309-726)del (enzyme, UniProt Q8TD19)
chain: MSVLGEYERHCDSINSDFGSESGGCGDSSPGPSASQGPRAGGGAAEQEELHYIPIRVLGRGAFGEATLYRRTEDDSLVVWKEVDLTRLSEKERRDALNEIVILALLQHDNIIAYYNHFMDNTTLLIELEYCNGGNLYDKILRQKDKLFEEEMVVWYLFQIVSAVSCIHKAGILHRDIKTLNIFLTKANLIKLGDYGLAKKLNSEYSMAETLVGTPYYMSPELCQGVKYNFKSDIWAVGCVIFELLTLKRTFDATNPLNLCVKIVQGIRAMEVDSSQYSLELIQMVHSCLDQDPEQRPTADELLDRPLLVLNSKTIRSNSSGLSIGTVFQSSSPGGGGGGGGGEEEDSQQESETPDPSGGFRGTMEADRGMEGLISPTEAMGNSNGASSSCPGWLRKELENAEFIPMPDSPSPLSAAFSESEKDTLPYEELQGLKVASEAPLEHKPQVEASSPRLNPAVTCAGKGTPLTPPACACSSLQVEVERLQGLVLKCLAEQQKLQQENLQIFTQLQKLNKKLEGGQQVGMHSKGTQTAKEEMEMDPKPDLDSDSWCLLGTDSCRPSL
On to B1, for which the binding result is given as “binds”.

For the origin of these results see paper PMC9585074.
